Assay results: paper doi:10.1101/2025.08.22.671773
Results are given in words; binding and its absence hold for the method and conditions named. Binding seen in cells or lysates may run through a third protein. Some results given as binding are weak or reduced against the parent protein; the word gives no strength.

Sequences of proteins named here, by UniProt entry; tags and fusion partners are left off. Residues count along the entry.
UniProt P32004, residues 20-1257: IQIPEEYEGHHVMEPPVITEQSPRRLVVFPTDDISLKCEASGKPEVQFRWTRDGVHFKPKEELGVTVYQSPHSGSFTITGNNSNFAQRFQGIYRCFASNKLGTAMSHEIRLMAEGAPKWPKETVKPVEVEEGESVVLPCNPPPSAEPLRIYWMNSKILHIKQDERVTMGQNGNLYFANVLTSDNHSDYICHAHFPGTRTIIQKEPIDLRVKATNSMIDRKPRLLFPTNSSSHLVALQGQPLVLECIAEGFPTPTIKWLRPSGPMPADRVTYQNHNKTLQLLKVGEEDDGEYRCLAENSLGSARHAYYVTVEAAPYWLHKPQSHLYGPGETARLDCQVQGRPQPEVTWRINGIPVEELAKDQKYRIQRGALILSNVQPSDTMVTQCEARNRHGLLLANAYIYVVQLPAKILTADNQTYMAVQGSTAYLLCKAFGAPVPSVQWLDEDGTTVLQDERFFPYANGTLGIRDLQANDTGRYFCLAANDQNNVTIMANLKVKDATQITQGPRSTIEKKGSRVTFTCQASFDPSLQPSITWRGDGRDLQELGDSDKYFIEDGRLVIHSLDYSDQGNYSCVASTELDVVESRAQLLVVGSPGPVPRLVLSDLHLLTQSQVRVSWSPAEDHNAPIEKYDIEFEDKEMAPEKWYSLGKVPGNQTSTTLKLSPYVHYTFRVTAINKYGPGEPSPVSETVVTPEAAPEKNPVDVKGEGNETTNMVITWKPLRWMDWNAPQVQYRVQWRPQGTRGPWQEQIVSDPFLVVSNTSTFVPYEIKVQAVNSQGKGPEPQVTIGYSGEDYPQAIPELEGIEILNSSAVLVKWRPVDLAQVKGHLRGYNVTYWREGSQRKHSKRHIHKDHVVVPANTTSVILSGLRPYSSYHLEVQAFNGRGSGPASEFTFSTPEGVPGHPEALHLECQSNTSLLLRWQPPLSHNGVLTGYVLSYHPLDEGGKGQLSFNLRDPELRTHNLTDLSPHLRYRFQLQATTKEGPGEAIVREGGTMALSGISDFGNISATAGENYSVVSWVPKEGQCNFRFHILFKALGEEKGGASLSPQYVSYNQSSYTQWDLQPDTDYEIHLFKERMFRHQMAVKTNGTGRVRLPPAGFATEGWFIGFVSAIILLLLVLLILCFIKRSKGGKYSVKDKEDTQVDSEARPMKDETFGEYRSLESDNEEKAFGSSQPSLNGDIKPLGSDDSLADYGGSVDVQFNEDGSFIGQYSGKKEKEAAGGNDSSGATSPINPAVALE
UniProt O14646: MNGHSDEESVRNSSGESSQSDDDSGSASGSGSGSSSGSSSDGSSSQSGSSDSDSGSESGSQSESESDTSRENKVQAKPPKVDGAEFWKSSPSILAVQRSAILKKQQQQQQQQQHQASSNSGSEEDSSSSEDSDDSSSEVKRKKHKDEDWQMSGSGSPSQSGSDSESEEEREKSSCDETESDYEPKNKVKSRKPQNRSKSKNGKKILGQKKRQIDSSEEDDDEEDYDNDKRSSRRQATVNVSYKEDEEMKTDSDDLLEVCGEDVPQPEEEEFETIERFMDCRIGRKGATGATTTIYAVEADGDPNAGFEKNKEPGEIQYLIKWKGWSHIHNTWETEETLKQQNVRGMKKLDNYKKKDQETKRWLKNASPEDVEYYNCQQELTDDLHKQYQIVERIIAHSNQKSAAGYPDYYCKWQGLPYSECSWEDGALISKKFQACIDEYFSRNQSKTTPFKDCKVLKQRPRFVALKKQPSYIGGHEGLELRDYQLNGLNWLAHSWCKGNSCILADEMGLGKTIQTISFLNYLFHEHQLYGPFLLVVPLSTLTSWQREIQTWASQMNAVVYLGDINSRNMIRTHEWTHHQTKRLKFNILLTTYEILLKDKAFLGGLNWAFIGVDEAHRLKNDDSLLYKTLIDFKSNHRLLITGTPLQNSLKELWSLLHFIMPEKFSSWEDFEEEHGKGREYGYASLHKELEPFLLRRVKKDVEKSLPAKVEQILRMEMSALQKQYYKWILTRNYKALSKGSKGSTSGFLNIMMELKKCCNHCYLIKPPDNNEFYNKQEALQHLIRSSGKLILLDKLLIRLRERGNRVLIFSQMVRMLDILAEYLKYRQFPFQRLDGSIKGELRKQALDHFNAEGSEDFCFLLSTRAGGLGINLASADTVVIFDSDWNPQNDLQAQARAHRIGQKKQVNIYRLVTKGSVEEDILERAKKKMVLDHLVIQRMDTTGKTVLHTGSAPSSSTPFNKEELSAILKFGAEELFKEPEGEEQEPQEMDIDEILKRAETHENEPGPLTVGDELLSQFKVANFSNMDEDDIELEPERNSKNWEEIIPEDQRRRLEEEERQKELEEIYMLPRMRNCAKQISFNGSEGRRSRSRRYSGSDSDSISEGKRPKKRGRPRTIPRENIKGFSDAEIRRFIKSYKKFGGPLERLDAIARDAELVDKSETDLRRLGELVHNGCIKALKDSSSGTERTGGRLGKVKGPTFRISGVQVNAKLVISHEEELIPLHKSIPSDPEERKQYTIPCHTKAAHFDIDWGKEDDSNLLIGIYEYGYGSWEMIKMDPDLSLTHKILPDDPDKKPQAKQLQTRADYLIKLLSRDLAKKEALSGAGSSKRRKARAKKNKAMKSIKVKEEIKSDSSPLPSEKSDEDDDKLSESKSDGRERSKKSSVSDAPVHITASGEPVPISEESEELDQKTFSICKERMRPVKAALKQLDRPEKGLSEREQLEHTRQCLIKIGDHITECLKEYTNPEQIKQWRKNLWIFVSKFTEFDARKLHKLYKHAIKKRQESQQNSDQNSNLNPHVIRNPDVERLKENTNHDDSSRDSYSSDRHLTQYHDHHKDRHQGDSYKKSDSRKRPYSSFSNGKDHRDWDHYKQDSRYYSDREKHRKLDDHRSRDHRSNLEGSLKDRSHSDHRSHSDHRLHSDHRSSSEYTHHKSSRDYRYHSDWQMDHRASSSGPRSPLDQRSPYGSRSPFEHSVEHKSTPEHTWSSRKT
UniProt Q9NYQ6, residues 21-3014: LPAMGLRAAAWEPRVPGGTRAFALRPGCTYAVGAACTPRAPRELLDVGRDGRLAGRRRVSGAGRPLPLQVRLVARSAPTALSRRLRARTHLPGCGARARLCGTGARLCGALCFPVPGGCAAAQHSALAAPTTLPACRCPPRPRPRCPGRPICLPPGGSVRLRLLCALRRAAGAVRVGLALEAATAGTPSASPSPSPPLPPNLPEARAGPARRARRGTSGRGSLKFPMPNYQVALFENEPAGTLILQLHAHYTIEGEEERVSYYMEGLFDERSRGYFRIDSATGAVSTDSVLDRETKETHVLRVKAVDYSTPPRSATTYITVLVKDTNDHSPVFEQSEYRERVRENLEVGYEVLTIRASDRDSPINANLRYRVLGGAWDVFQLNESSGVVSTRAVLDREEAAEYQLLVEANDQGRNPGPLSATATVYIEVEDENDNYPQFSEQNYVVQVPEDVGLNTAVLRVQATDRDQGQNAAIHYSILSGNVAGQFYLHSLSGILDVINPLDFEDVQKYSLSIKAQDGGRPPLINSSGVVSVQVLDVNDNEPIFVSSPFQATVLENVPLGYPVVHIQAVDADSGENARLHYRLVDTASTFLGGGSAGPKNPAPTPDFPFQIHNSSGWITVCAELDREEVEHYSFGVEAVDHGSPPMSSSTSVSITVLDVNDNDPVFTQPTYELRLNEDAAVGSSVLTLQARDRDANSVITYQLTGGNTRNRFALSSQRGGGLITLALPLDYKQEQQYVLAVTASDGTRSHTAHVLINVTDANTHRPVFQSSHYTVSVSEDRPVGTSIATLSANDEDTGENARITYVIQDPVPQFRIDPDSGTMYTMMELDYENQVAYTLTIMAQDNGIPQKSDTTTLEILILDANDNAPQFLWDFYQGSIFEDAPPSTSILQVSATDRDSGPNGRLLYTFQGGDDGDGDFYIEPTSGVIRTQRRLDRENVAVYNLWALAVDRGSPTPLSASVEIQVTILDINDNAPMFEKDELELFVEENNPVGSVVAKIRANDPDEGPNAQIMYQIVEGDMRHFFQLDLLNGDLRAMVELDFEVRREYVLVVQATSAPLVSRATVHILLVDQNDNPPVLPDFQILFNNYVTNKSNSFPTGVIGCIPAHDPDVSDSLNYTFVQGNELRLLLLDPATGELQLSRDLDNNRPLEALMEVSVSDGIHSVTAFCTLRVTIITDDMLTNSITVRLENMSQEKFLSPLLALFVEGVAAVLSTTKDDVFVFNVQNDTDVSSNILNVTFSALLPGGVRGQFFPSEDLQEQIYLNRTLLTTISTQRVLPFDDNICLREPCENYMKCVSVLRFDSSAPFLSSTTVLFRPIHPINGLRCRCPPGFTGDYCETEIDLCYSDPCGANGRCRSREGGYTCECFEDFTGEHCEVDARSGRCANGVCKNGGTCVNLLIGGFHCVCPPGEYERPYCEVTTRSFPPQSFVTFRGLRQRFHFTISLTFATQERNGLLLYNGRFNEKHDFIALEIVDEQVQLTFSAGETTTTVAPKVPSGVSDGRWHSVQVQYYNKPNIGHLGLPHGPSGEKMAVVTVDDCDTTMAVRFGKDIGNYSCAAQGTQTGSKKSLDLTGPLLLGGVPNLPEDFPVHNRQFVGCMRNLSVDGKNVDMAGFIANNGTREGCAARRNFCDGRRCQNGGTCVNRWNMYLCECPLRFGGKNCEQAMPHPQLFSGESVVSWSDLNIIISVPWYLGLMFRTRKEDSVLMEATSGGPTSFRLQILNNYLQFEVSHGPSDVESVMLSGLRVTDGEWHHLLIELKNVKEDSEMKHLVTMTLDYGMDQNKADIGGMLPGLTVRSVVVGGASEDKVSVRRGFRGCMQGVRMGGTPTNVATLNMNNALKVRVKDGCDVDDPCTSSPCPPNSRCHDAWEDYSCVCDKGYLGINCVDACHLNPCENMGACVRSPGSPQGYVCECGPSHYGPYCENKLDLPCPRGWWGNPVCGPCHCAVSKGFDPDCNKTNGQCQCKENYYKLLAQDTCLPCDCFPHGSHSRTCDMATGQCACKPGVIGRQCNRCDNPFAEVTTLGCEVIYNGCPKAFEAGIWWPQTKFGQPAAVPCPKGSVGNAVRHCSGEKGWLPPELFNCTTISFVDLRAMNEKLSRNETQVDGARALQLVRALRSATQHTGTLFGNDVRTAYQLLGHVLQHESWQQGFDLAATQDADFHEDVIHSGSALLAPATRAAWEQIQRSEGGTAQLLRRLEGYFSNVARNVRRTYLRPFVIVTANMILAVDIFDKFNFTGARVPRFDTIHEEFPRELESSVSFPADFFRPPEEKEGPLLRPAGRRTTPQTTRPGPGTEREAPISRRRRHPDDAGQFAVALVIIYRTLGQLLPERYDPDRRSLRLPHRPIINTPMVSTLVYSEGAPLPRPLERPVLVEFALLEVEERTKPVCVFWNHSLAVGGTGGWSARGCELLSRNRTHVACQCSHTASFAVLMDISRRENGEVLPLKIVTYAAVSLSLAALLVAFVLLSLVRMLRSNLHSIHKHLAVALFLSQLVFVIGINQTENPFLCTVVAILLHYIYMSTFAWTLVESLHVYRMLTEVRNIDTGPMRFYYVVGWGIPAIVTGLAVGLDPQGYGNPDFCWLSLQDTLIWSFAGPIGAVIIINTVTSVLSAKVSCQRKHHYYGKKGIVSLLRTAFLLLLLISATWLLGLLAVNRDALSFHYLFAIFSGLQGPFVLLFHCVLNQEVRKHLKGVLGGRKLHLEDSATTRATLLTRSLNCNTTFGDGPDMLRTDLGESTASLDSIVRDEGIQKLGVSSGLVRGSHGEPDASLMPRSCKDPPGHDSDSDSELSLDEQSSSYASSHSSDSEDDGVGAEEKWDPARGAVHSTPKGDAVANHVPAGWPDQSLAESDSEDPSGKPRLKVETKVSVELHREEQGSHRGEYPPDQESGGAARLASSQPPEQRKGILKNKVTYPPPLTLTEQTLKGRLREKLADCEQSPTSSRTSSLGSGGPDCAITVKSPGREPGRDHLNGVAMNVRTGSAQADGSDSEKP
UniProt P05412: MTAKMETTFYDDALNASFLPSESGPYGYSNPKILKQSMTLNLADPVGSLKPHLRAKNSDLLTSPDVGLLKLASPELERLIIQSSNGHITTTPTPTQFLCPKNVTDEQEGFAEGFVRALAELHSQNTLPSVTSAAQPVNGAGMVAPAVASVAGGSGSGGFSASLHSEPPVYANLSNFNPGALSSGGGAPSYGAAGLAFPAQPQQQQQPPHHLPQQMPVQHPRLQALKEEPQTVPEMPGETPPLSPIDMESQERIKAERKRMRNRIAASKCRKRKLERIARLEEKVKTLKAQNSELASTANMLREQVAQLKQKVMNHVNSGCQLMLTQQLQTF

Experiments:
[1] = target: L1 cell adhesion molecule (L1CAM) (human (endogenous in H23)) (UniProt P32004); assay: proximity ligation
[2] = target: L1 cell adhesion molecule (L1CAM) (human (endogenous in H23)) (UniProt P32004); assay: co-IP
[3] = target: CHD1 (chromodomain helicase DNA-binding protein 1) (human (endogenous in H23)) (UniProt O14646); assay: proximity ligation

binding [1]	binding [2]	binding [3]	Substance
binds	binds	–	CELSR1 (cadherin EGF LAG seven-pass G-type receptor 1) (from UniProt Q9NYQ6 21-3014)
–	–	binds	c-Jun (from UniProt P05412 1-331)
